# In the supplement of paper PMC10849652:
# The chains behind the UniProt entries cited, without tags or fusion partners. Where a name states a change or a piece, a line headed by the entry shows the natural chain unless it says otherwise.
# UniProt O60830: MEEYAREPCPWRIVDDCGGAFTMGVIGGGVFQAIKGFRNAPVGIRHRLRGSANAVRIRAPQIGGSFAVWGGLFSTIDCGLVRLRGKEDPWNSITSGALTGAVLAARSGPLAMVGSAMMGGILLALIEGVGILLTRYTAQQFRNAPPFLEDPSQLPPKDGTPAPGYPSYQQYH
# UniProt Q9P0S9: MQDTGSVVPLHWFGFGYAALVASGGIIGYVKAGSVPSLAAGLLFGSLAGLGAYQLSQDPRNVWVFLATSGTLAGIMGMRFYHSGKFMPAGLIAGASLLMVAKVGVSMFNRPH
# UniProt Q9Y584: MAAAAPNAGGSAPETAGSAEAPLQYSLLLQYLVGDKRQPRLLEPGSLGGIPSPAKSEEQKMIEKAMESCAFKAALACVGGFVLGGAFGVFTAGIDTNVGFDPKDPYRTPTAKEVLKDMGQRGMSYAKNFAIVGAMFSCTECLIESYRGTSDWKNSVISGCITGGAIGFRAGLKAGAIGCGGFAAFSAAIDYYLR
# UniProt Q99595: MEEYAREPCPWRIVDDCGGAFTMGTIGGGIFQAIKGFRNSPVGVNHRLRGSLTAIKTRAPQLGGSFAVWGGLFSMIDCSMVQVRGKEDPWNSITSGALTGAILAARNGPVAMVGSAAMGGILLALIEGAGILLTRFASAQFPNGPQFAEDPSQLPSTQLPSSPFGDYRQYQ
# UniProt Q9Y5L4: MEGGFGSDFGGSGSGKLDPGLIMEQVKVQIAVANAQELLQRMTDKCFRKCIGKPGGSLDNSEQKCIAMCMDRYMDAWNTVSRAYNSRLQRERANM
# UniProt Q9Y5J9: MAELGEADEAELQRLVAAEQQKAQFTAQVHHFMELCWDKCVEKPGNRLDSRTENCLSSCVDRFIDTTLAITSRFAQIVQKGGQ
# UniProt Q9NPL8: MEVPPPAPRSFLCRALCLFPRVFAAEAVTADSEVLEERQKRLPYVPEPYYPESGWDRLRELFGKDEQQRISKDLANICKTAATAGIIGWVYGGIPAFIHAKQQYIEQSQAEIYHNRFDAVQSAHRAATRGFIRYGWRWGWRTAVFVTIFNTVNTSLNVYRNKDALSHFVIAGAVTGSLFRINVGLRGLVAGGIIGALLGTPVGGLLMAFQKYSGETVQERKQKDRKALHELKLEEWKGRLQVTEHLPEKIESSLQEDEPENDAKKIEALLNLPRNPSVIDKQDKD
# UniProt Q9Y2S6, whole entry, looked up: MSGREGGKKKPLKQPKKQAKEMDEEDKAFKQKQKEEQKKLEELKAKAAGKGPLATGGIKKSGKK
# UniProt O75663: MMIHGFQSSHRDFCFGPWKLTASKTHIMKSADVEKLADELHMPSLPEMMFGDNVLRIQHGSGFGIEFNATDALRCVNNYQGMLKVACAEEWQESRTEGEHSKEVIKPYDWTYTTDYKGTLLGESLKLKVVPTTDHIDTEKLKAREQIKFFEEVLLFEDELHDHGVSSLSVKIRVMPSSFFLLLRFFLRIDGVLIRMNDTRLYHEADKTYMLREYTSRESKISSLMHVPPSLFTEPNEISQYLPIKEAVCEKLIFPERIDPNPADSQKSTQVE
# UniProt P62072: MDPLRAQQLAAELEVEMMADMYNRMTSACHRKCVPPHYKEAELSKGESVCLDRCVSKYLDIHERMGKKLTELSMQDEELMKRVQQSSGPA
# UniProt Q8IYQ7: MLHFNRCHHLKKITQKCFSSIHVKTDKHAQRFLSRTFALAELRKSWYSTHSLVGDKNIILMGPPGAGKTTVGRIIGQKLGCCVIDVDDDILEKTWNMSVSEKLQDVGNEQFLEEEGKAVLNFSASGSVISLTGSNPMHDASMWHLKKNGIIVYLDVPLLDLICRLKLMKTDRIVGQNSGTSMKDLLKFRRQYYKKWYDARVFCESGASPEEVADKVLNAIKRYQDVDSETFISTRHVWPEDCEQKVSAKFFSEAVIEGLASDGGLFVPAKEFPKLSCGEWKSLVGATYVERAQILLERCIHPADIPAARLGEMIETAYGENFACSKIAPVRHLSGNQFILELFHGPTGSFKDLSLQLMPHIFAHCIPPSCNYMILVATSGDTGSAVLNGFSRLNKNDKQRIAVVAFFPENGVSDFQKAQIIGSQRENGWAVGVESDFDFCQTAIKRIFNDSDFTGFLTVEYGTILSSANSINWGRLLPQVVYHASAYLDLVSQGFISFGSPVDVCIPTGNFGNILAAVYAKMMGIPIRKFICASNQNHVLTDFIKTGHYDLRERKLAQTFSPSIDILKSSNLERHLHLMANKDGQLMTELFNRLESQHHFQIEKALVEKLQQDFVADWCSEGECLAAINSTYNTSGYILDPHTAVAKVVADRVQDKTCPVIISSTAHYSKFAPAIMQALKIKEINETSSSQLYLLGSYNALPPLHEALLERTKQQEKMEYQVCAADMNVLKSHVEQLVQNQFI
# UniProt P49755: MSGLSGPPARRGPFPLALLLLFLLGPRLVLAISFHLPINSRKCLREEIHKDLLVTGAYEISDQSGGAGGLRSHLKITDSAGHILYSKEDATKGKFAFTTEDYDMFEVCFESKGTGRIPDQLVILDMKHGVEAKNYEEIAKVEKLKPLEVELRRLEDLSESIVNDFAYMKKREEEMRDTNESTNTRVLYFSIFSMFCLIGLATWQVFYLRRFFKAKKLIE
# UniProt Q8IUC6, whole entry, looked up: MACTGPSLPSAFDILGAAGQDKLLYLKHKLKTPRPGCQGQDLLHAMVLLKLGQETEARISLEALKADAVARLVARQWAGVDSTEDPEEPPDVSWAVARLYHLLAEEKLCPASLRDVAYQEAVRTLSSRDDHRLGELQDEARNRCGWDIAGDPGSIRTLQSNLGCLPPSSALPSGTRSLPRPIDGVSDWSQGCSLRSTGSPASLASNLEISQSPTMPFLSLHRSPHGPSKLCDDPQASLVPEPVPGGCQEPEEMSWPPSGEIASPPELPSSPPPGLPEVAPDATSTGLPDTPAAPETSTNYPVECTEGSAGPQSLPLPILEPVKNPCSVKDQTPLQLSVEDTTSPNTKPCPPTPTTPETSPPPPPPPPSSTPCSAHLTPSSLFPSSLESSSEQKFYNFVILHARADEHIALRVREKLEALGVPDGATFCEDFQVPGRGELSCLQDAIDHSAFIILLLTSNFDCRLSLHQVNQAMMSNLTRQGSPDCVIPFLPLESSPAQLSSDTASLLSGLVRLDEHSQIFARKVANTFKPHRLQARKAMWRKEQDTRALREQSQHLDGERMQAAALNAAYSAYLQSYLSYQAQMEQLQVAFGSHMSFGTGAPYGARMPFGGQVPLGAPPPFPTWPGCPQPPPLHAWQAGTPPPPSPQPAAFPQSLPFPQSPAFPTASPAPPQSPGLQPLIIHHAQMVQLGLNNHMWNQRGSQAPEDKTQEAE
# UniProt Q9BRN9: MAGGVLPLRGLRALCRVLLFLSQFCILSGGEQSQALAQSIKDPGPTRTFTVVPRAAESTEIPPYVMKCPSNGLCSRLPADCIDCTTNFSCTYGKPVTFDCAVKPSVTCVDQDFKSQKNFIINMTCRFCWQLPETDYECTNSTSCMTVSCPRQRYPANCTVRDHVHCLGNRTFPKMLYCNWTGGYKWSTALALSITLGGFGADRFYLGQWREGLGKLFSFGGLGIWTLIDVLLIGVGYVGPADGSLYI
# UniProt P51854: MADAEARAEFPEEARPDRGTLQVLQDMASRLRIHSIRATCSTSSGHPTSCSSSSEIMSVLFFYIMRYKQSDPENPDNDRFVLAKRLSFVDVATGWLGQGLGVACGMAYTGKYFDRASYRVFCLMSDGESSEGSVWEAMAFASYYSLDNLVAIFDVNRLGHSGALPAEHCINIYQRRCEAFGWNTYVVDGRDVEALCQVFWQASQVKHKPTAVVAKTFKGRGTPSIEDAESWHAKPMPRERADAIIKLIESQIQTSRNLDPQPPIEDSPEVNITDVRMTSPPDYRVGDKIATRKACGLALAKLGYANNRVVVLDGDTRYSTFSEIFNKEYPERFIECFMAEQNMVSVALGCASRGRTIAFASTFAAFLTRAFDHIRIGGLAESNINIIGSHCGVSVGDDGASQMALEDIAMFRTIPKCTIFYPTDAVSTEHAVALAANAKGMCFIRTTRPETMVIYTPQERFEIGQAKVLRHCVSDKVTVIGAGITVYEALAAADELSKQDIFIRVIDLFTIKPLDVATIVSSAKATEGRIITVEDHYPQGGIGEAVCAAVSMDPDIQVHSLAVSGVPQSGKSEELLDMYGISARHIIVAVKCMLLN
# UniProt Q9NPI0: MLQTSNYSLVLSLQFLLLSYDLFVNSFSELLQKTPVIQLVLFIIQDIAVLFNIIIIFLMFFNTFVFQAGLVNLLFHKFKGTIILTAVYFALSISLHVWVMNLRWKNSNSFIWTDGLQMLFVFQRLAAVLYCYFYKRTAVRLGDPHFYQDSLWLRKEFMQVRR
# UniProt O75204: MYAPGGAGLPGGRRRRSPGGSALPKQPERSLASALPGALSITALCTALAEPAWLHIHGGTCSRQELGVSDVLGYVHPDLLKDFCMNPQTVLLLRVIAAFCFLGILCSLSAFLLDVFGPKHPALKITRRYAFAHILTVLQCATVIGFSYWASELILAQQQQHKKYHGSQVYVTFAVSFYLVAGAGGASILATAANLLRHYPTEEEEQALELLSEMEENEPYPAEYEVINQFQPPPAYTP
# UniProt Q8N9M5: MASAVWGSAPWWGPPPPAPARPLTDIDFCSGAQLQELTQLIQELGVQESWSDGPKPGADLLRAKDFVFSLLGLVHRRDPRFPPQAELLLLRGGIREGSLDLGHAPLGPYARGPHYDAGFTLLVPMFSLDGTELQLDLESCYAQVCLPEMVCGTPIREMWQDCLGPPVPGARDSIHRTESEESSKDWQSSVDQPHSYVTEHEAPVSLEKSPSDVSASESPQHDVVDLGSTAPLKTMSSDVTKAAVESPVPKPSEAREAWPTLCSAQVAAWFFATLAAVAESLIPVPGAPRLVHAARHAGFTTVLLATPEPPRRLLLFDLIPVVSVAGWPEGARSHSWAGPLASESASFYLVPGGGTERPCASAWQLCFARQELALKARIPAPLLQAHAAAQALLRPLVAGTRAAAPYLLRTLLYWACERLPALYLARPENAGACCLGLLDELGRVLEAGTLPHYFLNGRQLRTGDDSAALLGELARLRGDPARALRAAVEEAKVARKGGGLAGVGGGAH
# UniProt Q9H6X4: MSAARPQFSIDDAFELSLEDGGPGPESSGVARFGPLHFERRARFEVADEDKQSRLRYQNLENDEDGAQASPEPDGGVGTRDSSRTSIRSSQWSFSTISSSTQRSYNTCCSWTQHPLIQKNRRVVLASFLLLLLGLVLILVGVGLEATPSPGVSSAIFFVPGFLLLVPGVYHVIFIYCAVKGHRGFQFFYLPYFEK
# UniProt Q7Z402: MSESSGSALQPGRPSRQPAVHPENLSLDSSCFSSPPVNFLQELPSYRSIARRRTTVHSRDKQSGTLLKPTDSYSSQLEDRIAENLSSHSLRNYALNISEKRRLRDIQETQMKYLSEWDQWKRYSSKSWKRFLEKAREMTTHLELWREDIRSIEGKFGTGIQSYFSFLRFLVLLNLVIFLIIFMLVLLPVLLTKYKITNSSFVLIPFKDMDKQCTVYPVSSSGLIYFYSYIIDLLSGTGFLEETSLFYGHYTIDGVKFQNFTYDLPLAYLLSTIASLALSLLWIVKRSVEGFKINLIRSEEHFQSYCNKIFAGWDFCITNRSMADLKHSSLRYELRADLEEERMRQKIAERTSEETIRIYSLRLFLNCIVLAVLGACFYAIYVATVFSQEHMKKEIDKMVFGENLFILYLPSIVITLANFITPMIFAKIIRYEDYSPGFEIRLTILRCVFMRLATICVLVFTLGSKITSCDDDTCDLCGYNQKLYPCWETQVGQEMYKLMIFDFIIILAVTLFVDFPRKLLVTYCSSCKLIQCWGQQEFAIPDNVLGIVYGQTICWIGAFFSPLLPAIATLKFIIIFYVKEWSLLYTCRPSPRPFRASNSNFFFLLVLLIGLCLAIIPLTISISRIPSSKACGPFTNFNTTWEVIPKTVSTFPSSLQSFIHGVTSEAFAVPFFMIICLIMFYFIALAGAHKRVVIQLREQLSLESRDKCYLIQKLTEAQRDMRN
# UniProt Q6UWJ1: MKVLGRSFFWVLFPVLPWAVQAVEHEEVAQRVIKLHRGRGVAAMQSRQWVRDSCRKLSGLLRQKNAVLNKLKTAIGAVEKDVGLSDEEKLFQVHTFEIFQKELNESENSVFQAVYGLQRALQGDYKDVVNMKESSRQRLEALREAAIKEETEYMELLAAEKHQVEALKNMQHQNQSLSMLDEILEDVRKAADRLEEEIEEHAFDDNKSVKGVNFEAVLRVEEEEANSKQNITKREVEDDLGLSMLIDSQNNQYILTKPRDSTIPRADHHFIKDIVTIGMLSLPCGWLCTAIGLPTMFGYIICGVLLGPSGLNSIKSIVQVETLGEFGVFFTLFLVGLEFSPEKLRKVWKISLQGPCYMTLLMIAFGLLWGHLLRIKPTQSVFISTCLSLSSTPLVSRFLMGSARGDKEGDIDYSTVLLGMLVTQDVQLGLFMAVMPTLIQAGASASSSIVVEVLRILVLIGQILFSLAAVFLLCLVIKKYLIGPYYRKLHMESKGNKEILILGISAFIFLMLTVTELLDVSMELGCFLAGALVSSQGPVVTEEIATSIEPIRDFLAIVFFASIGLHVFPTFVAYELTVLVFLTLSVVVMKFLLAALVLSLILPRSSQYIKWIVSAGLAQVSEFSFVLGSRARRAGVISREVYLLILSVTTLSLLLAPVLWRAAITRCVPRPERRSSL
# The other results are listed elsewhere or left out.
# What was measured:
# Test in all cases: log2 fold change, soluble protein after heating vs DMSO (PISA); higher = thermal stabilisation; K562 lysate, 10 uM; active = over 0.2 and 3.5 SD of the protein, either way, in both replicates (recomputed)
# [1] = compound: NCC(=O)Nc1ccc(-n2nc(C(F)(F)F)cc2-c2ccc3c(ccc4ccccc43)c2)cc1
# Outline: (§1)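 The values are log-two fold changes in thermal stability compared with solvent controls and come from duplicates. They were obtained by TMTpro 16plex LC-MS/MS, with channel sums equalised, on the supernatant after 21,000xg for 90 min. That supernatant came from crude K562 extract at 1 mg/mL protein treated with 10 μM compound for 30 min, heated for 3 min across 48°C-58°C, pooled and brought to 0.5% NP-40 at 4°C.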
# vorinostat = compound: O=C(CCCCCCC(=O)Nc1ccccc1)NO [vorinostat]
# Outline: as §1
# silmitasertib = compound: O=C(O)c1ccc2c(c1)nc(Nc1cccc(Cl)c1)c1ccncc12 [silmitasertib]
# Outline: as §1
# [2] = compound: O=C1NC(=O)C(c2cnc3ccccn23)=C1c1cn2c3c(cc(F)cc13)CN(C(=O)N1CCCCC1)CC2
# Outline: as §1
# entospletinib = compound: c1cn2cc(-c3ccc4cn[nH]c4c3)nc(Nc3ccc(N4CCOCC4)cc3)c2n1 [entospletinib]
# Outline: as §1
Target,log2 fold change [1],log2 fold change (vorinostat),log2 fold change (silmitasertib),log2 fold change [2],log2 fold change (entospletinib)
TGOLN2 isoform 7 (UniProt O43493),inactive: -0.02,inactive: 0.089,inactive: 0.055,inactive: -0.047,inactive: -0.019
THG1L (UniProt Q9NWX6),inactive: 0.027,inactive: -0.027,inactive: 0.013,inactive: 0.039,inactive: 0.003
TIMM17B (UniProt O60830),inactive: 0.053,inactive: -0.197,inactive: 0.091,inactive: -0.021,inactive: -0.03
TLN2 (UniProt Q9Y4G6),inactive: 0.007,inactive: 0.036,inactive: 0.002,inactive: -0.003,inactive: 0.02
THEM6 (UniProt Q8WUY1),inactive: -0.009,inactive: 0.046,inactive: 0.002,inactive: -0.029,inactive: -0.004
TMEM14C (UniProt Q9P0S9),inactive: -0.032,inactive: -0.018,inactive: 0.013,inactive: 0.058,inactive: 0.091
TIMM22 (UniProt Q9Y584),inactive: -0.034,inactive: 0.123,inactive: -0.071,inactive: -0.005,inactive: -0.001
THOC2 (UniProt Q8NI27),inactive: -0.009,inactive: -0.167,inactive: 0.006,inactive: -0.013,inactive: 0.013
THTPA (UniProt Q9BU02),inactive: -0.05,inactive: 0.039,inactive: 0.007,inactive: -0.039,inactive: -0.025
TIMM17A (UniProt Q99595),inactive: 0.021,inactive: 0.162,inactive: 0.036,inactive: 0.012,inactive: -0.019
TMA16 (UniProt Q96EY4),inactive: -0.021,inactive: -0.253,inactive: 0.026,inactive: -0.014,inactive: 0.002
TIMM13 (UniProt Q9Y5L4),inactive: -0.082,inactive: 0.065,inactive: 0.026,inactive: 0.03,inactive: -0.05
TMED4 (UniProt Q7Z7H5),inactive: -0.051,inactive: 0.151,inactive: -0.029,inactive: 0.019,inactive: 0.003
TIMM8B (UniProt Q9Y5J9),inactive: -0.001,inactive: -0.164,inactive: 0.046,inactive: -0.031,inactive: -0.126
THUMPD1 (UniProt Q9NXG2),inactive: -0.026,inactive: 0.114,inactive: -0.007,inactive: -0.043,inactive: -0.01
TIMMDC1 (UniProt Q9NPL8),inactive: 0.033,inactive: 0.001,inactive: -0.057,inactive: 0.044,inactive: 0.005
TM6SF1 (UniProt Q9BZW5),inactive: -0.083,inactive: 0.215,inactive: -0.032,inactive: -0.043,inactive: -0.08
TMEM185B (UniProt Q9H7F4),inactive: -0.163,inactive: 0.089,inactive: -0.145,inactive: -0.029,inactive: 0.046
TMEM186 (UniProt Q96B77),inactive: 0.019,inactive: 0.063,inactive: -0.088,inactive: 0.07,inactive: -0.009
TIMM29 (UniProt Q9BSF4),inactive: 0,inactive: -0.023,inactive: -0.012,inactive: -0.065,inactive: 0.07
TIMELESS (UniProt Q9UNS1),inactive: 0,active: -0.412,inactive: 0.018,inactive: 0.062,inactive: 0.017

Target,log2 fold change [1],log2 fold change (vorinostat),log2 fold change (silmitasertib),log2 fold change [2],log2 fold change (entospletinib)
TMA7 (UniProt Q9Y2S6),inactive: 0.038,inactive: 0.113,inactive: -0.036,inactive: -0.048,inactive: 0.018
TK1 (UniProt P04183),inactive: 0.04,inactive: -0.028,inactive: -0.001,inactive: 0.014,inactive: 0.035
TLCD1 (UniProt Q96CP7),inactive: -0.084,inactive: 0.208,inactive: 0.124,inactive: -0.172,inactive: 0.045
TK1 (UniProt K7ERV3),inactive: -0.018,inactive: 0.086,inactive: 0.01,inactive: -0.014,inactive: -0.013
TIPRL (UniProt O75663),inactive: -0.021,inactive: -0.045,inactive: 0.009,inactive: 0.01,inactive: 0
TIMM10 (UniProt P62072),inactive: -0.067,inactive: 0.057,inactive: 0.008,inactive: 0.033,inactive: -0.095
TGFBRAP1 (UniProt Q8WUH2),inactive: -0.039,active: -0.433,inactive: 0.051,inactive: -0.018,inactive: 0.024
THNSL1 (UniProt Q8IYQ7),inactive: -0.006,inactive: 0.032,inactive: -0.016,inactive: 0,inactive: 0.025
TMED10 (UniProt P49755),inactive: -0.034,inactive: 0.138,inactive: -0.012,inactive: 0.018,inactive: -0.005
THUMPD2 (UniProt Q9BTF0),inactive: -0.01,inactive: -0.084,inactive: 0.006,inactive: -0.025,inactive: -0.015
TGM2 (UniProt P21980),inactive: 0.018,inactive: -0.069,inactive: 0.019,inactive: 0.001,inactive: 0.02
TLN1 (UniProt Q9Y490),inactive: -0.01,inactive: 0.038,inactive: -0.004,inactive: 0.008,inactive: 0.009
THYN1 (UniProt Q9P016),inactive: -0.016,inactive: -0.258,inactive: 0,inactive: 0,inactive: 0.011
TIMP1 (UniProt P01033),inactive: 0.015,inactive: 0.126,inactive: 0.015,inactive: 0.015,inactive: -0.021
TMEM135 (UniProt Q86UB9),inactive: 0.022,inactive: -0.031,inactive: 0.022,inactive: -0.018,inactive: -0.021
TIMM21 (UniProt Q9BVV7),inactive: -0.035,inactive: -0.131,inactive: -0.039,inactive: -0.042,inactive: -0.009
THADA (UniProt Q6YHU6),inactive: 0.009,active: -0.456,inactive: 0.013,inactive: 0.015,inactive: 0.006
THAP9 (UniProt Q9H5L6),inactive: 0.207,,,inactive: 0.09,inactive: 0.059
TIFA (UniProt Q96CG3),,inactive: 0.086,inactive: -0.054,inactive: -0.053,inactive: 0.023
TGIF1 (UniProt Q15583),,inactive: -0.185,inactive: -0.07,inactive: 0.03,
TMEM104 (UniProt Q8NE00),inactive: -0.187,,,inactive: -0.042,

Target,log2 fold change [1],log2 fold change (vorinostat),log2 fold change (silmitasertib),log2 fold change [2],log2 fold change (entospletinib)
TMEM159 isoform 2 (UniProt Q96B96),,inactive: 0.188,inactive: -0.108,inactive: 0.138,inactive: -0.045
"TKT, A0A0B4J1R6",,inactive: 0.064,inactive: -0.017,inactive: -0.144,
TLNRD1 (UniProt Q9H1K6),,,,inactive: 0.111,
TICAM1 (UniProt Q8IUC6),,inactive: 0.146,inactive: 0.103,inactive: 0.043,
TM2D3 (UniProt Q9BRN9),,inactive: 0.096,inactive: 0.339,,inactive: -0.184
TKTL1 (UniProt P51854),,,,,inactive: 0.203
THAP11 (UniProt Q96EK4),inactive: 0.111,inactive: -0.08,inactive: -0.103,,inactive: -0.124
TM7SF2 (UniProt O76062),,,,inactive: -0.161,
TMEM175 (UniProt Q9BSA9),,inactive: -0.239,inactive: 0,inactive: -0.013,
TMEM177 (UniProt Q53S58),inactive: -0.183,inactive: -0.012,inactive: -0.035,inactive: 0.034,inactive: 0.005
TMEM138 (UniProt Q9NPI0),inactive: -0.096,inactive: 0.164,inactive: -0.005,,inactive: 0.089
TMEM184B (UniProt Q9Y519),,,,inactive: 0.074,
TMEM127 (UniProt O75204),inactive: 0.05,inactive: 0.044,inactive: -0.135,,inactive: -0.197
TMEM129,,inactive: -0.194,inactive: -0.234,,
TMEM102 (UniProt Q8N9M5),inactive: 0.024,,,inactive: -0.044,inactive: -0.069
TMEM134 (UniProt Q9H6X4),,inactive: 0.184,inactive: 0.009,inactive: -0.173,
TMC7 (UniProt Q7Z402),,inactive: 0.097,inactive: 0.035,,
TMCO3 (UniProt Q6UWJ1),inactive: -0.014,,,inactive: 0.054,inactive: -0.036
TMEM184C (UniProt Q9NVA4),,inactive: 0.086,inactive: 0.002,inactive: 0.006,inactive: -0.111

# Full records from above:
# TMEM104 (UniProt Q8NE00) is listed with log2 fold change [1]: inactive: -0.187; log2 fold change [2]: inactive: -0.042
# TICAM1 (UniProt Q8IUC6) is listed with log2 fold change (vorinostat): inactive: 0.146; log2 fold change (silmitasertib): inactive: 0.103; log2 fold change [2]: inactive: 0.043
# THNSL1 (UniProt Q8IYQ7) is listed with log2 fold change [1]: inactive: -0.006; log2 fold change (vorinostat): inactive: 0.032; log2 fold change (silmitasertib): inactive: -0.016; log2 fold change [2]: inactive: 0; log2 fold change (entospletinib): inactive: 0.025
# TIMM17A (UniProt Q99595) is listed with log2 fold change [1]: inactive: 0.021; log2 fold change (vorinostat): inactive: 0.162; log2 fold change (silmitasertib): inactive: 0.036; log2 fold change [2]: inactive: 0.012; log2 fold change (entospletinib): inactive: -0.019
